Laboratory results as given in PMC2956695.

B1: Sir1, sulfite reductase beta subunit (protein, UniProt Q1K9C2 1-1473)
chain: MSVKASINNSQEAVSRIAFRCSDALYVVHPNNSILNGALTESLKDLKKFETLNVSGKVPHVLPLKSHADPFAHIADAILAEEEVASTQPKQITSVVASADALFFATPHLYKLAHEPLVAHVAIESTEAFDFASVRDTGFVILFSGNRPGDSSEAALEDTLETASLAHRLALKLNTGVLHFYSPVYDTTAALENIETLPSKEDAQHARVAHIPIEEKQEDSEKEGNIKEAFVPPKFDQPERDAATSEYLESLSIKPFEYSGSDDATDVLLVFGSAASELAKAAVTSSVAVAIVRVLRPWLPSKLQEVLPTSTKRLTVLEPITSLPRKWDPLYLDVLSSFVASGSSIELFAVRYGLSSSEQATEIIKAVRDNLSGALKPSLVCDFTDGVSQVFVPTPPSIEEAYHKLLHRVFKSRLNIVNDPASSATKQNIPSRLIISPQFALGSVLEYENQRRAFCDEVATLLKEKNSSVSSESLEVLSNWIVSVDNLESPVDPELVISELKKDSSAPIKSLLDRSEFFTNVSHWIIGSDAWAYDLGNSALHQVLCLEKNVNLLIVDTQPYSTREAVRSSSRKKDIGLYAMNFGNAYVASTALYSSYTQLISALLEADKFKGPSVVLAYLPYHSADDDAITVLQETKKAVDIGYWPLYRWTPALEDGEYSDFKLDSERIRRELKTFLERDNYLTQLTLRVPSLARTLTQSFGAEVRHQQNVDSRNALNKLIEGLSGPPLTILFASDGGTAENVAKRLQNRASARGSKCKIMAMDDFPIEELGNEKNVVVLVSTAGQGEFPQNGREFWEAIKGADLNLSELKYGVFGFGDYEYWPRKEDKIYYNRPGKQLDARFVELGAAPLVTLGLGNDQDPDGWETAYNLWEPELWKALGLDNVEIDIDEPKPITNEDIKQASNFLRGTIFEGLADESTGALAESDCQLTKFHGIYMQDDRDIRDERKKQGLEPAYGFMIRARMPAGVCTPEQWIAMDDISTKWGNHTLKITTRQTFQWHGVLKKNLRNTIRNIVKVFLTTLGACGDVARNVTCSSTPNNETIHDQLFAVSKQISNELLPTTSSYHEIWIEDPETVEKRKVAGEAVQDVEPLYGPTYLPRKFKVGVAAPPYNDVDVYTNDVALIAIIENDKVLGFNVGIGGGMGTTHNNKKTYPRLATVVGYVLTDKIMEVVKAILIVQRDNGDRENRKHARLKYTVDTLGVSTFVEKVEEVLGYKFEEARDHPQFIKNHDDFEGWHKTEKNKYWRSIFVENGRIENNGILQFKTGLRELAERLYTEKSEAEFRLTANQHVILFNVAENELGWINEHMAKYKLDNNAFSGLRLSSAACVALPTCGLAMAESERYLPKLITKVEEIVYEAGLQKDSIVMRMTGCPNGCSRPWVAEIACVGKAPNTYNLMLGGGFYGQRLNKLYRSSVQEKEILNLLRPLIKRYALEREDGEHFGDWVIRAGIITAVENGGANGAVHEGVSPEAF
B2: Ade1, phosphoribosylamine-glycine ligase (protein, UniProt P20772 1-788)
chain: MEPIIALLIGNGGREHTIAWKLCESPLISKVYVAPGNGGTASNGAESKMENVNIGVCDFEQLVKFALDKDVNLVIPGPELPLVEGIEGHFRRVGIPCFGPSALAARMEGSKVFSKDFMHRNNIPTAVYKSFSNYDHAKSFLDTCTFDVVIKADGLAAGKGVIIPKTKKEAFEALESIMLNEEFGSAGKNVVIEELLEGEELSILTFSDGYTCRSLPPAQDHKRAFDGDKGPNTGGMGCYAPTPVASPKLLETVQSTIIQPTIDGMRHEGYPLVGILFTGLMLTPSGPRVLEYNVRFGDPETQAVLPLLESDLAEIILACVNHRLDAIDIVISRKFSCAVVCVAGGYPGPYNKGDIITFDALKDKNTRIFHAGTSIRDGNVVTNGGRVLAVEATGDSVEAAVRLAYEGVKTVHFDKMFYRKDIAHHALNPKRKTREILTYENSGVSVDNGNEFVQRIKDLVKSTRRPGADADIGGFGGIFDLKQAGWNDPLLVSATDGVGSKLLIALSLNKHDTVGIDLVAMNVNDLVVQGAEPLIFLDYFATGSLDLKVSTSFVEGVVKGCKQAGCALVGGETSEMPGLYHDGHYDANGTSVGAVSRDDILPKPESFSKGDILLGLASDGVHSNGYSLVRKIVEYSDLEYTSVCPWDKNVRLGDSLLIPTRIYVKPLLHVIRKNIVKGMAHITGGGLVENVPRMLPSHLNAIIDVDTWEVPEVFKWLKDAGNVPISDMARTFNMGIGMVVAVASEDAEETMKELTSVGETVYRIGQLVDKESSSERCHLVNLNKWETF
B3: Gpd1, glycerol-3-phosphate dehydrogenase (protein, UniProt P21696 1-385)
chain: MSGYGQQGVSAANIDSIRPKKRLSIGVVGSGNWGTAIAKICGENARAHGHHFRSKVRMWVFEEEIEYKGEKRKLTEVFNEAHENVKYLPGIECPPNVIAVPDVREVARRADILVFVVPHQFIERVCDQMVGLIRPGAVGISCIKGVAVSKEGVRLYSEVISEKLGIYCGVLSGANVANEVAREQFCETTIGFNPPNEVDIPREQIAAVFDRPYFSVVSVDDVAGVALGGALKNVVAMAVGFADGLEWGGNTKAAIMRRGLLEMQKFATTFFDSDPRTMVEQSCGIADLVTSCLGGRNNRCAEAFVKTGKSLETLEKELLGGQLLQGAATSKDVHEFLLTKDMVKDFPLFTAVYNISYEDMDPKDLIIVLQPLKEDSENEGGTETE
B4: Tef3, translation elongation factor (protein, UniProt O94489 1-1047)
chain: MSAKSENKQSVKALEELLKHLTVCDAAEEADAAKALASFVNGPIEEQDAPSQVFSAISKQLNDKNATARERVLKGLEAVANHGSVAADVEPYLVELLPAVIAKVADKQNAVRDAAIAASKAIVRCTTPYAVKAIVPSVLESIHTTGKWNEKMNSLQLLDVLVEVAPSQLSYSLPQIIPVVSESMWDTKAEVKKQSKETMTKVCTLIANADIDRFIPELINCIAHPEEVPETIHSLGATTFVTEVQAPTLSIMVPLLARGLNERSTPIKRKTAVIIDNMSKLVEDPQVVAPFLPKLLPGLYHIKDTIGDPECRSVVQRAITTLERVGNVVDGKIPEVSTAANPEVCLETLKAVLGEIKVPTNEEVIAKYVANIAAQLVEEKDNENESWVLNITPYLTAFIDEAHIHKIVEQLRTRSIAKIPGGASHAEEEEEGEDLCNCEFSLAYGAKILLNRTRLRLKRGRRYGLCGPNGSGKSTLMRAIVNGQVEGFPTHLRTVYVEHDIDESEADTPSVDFILQDPAVPIKDRDEIVKALKENSFTDELINMPIGSLSGGWKMKLALTRAMFKNPDILLLDEPTNHLDVVNVAWLENFLVNQKDVSSIIVSHDSGFLDHVVQAIIHYERFKLRKYLGNMSEFVKKVPSAKSYYELGASEMEFKFPEPGFLEGVKTKQRAIIKVQHMSFQYPGTSKPQLNDISFQVSLSSRIAVIGPNGAGKSTLIKVLTGELLPTVGEIYQHENCRIAYVAQAAFTHLGHHPDKTPSEYIQWRFQSGEDLEAMDKASRVISEADEEAMKNKIFKIEGTQRKILGIHSRRKLKNSYEYECSFLVGENIGMKSERWVPMMSSDNAWLPRGELMETHAKMVAEVDRAEALKSGQFRPLVRKEIEEHCSLLGLDAELVSHSRIKGLSGGQKVKLVLAACTWLRPHVIVLDEPTNYLDRDSLGALSKGLKNFGGGVVLVTHSREFTEGLTEEVWAVNNGHMTPSGHNWVSGQGSGPRIQEKEEGDTFDAFGNKIEKAKKAKKLTGAELRKKKKERMARRKAGLEVSDDEL
B5: Ilv1, acetolactate synthase catalytic subunit (protein, UniProt P36620 141-669)
chain: AQAYSRVTKKPGVVLVTSGPGATNVITPIADALADGTPLVVFSGQVATSAIGSDAFQEADMVGISRSCTKWNVMVKDVADLPRRIDEAFEIATSGRPGPVLVDLPKDVTASVLKEPIPILSSVPSMNRRMKEVLEEGSKNVTAKIDRVANLLKLAKKPVIFCGHGVLANPECPTLLRKFSERLQIPVTTSLLGLGAVDERSDLSLHMLGMHGSGYANMAMQEADLILALGVRFDDRVTGNVSLFAPQARLAAAEERGGIIHFDISPKNIGKVVQPTEAIEGDVYESLKLLDSATKNIKIPSRFDWLSQIQTWKERFPFTFTRSAPGELVKPQEVIQELDKQTSDIKDKVTITTGVGAHQMWAATFYRWTKPSSLVTSGGLGTMGFGLPAAIGASVAAPKDIVIDIDGDASFSMTGMELATVRQFDIPVKILILNNEEQGMVTQWQNLFYEKRYSHTHQKNPNFVKLADAMGIKALRVEKREDLAKKMKEFLSTKGPVLMEVLVAQKEHVYPFVPGGKALHQFILHESLS
B6: Pss1, Hsp70 protein (protein, UniProt O59838 1-720)
chain: MSSRTNVVGIDFGNSKTVIAVARNRAIDVIVNEVSNRSTPSLVSYGERSRFLGEAAKSAEASNFRNTVGSLKRLAGRTYDDPEIKDIESNFISAKLTEVDGFVGAKVQYLNEETAFSNIQLIAAYFTKIKAIAEAELIGSVSDVVISIPAWFTDIQRRALLEAANIAGLNPLRLMNDNAAAALTYGITKTDLPEPESPRRVAIVDFGHSNYSVSIVEFSRGQFHIKSTVCDRNLGSRNMDKALIDYFAAEFKEKYKIDVLSNPKATFRLATAVERLKKVLSANANAPLNVEMIMNDIDASSFIKRSDFEELIKPLLERLTPPIEKALELAGIKKEDLYSIEMVGGCTRVPIVKEVIANYFGKGLSFTLNQDEAVARGCALSCAILSPVFRVREFHVHDVTTYPITFSWEPIPENPEEDSSLEVFSEGNPIPSTKILTFYRKAPFKLLAAYSKEAQLPGSIKQNIAQYLINDVVPNKDGDLSIVKIKVRLDLHGILVVEQAYIVEEQEVEEPVETSPEEEAEKKTDEPVKMRKVKKLVKVADLSVSVQEDRLPTEVLEKYREAEHQMIATDKLVAETVDRKNALEEYIYDTRAKLDDIYAPFTNEEESSKFKEMLTKAEDWLYEEGEDTTKAVYTAKLEDLMRVGGPIRQRYLDAEEAKRQKVQAEREAAKAATKSEAEKQKPSGKFEEGTGGRAPPPPPAEEVAPENEEVETMEIDEQKE

These binders were tested against T1, Slm9-3XFLAG (S. pombe) (UniProt O74309) (assay: affinity purification with mass spectrometry; extracts from 5 g of cells expressing Slm9-FLAG, Dynabeads coupled to anti-FLAG M2 antibody for 15 mins, Benzonase treatment, on-bead tryptic digestion, LC-MS/MS; listed proteins found in at least two independent purifications and absent from four control purifications from untagged cells).
T1 sequence: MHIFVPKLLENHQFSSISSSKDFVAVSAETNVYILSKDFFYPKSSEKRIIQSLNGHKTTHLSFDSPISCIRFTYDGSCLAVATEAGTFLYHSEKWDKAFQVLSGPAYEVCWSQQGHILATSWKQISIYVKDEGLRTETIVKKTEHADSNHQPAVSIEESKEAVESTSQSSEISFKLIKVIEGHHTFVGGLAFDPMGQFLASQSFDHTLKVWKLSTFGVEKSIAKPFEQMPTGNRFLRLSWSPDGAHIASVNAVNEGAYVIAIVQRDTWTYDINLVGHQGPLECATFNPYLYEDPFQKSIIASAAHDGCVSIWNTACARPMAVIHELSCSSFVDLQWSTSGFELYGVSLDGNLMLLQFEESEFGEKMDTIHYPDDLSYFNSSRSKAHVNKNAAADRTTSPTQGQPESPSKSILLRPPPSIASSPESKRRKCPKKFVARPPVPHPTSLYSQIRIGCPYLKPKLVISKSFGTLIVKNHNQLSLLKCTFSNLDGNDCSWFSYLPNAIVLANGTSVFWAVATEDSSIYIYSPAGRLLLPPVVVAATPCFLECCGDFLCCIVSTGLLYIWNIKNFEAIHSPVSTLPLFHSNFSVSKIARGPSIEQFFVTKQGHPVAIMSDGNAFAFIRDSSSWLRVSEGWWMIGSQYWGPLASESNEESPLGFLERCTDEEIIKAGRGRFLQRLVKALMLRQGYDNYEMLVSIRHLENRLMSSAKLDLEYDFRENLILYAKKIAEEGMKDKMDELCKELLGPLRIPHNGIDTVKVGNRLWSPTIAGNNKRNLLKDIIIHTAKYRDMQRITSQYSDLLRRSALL

binding, binds:
B1, B2, B3, B4, B5, B6

These are yes or no findings as the source states them, for the method shown. In cells and extracts the contact can be indirect. These calls come from enrichment with a bait or labelling near it, and not all partners need be listed. Tags and fused reporters may be left off the sequences shown.
